Assay results from article PMC8016666, “A novel combination therapy targeting ubiquitin-specific protease 5 in MYCN-driven neuroblastoma” (Oncogene, 2021).
No constants are given. Whether binding was seen depends on the method and setting. In cells and extracts the contact can be indirect. Some entries that bind do so weakly or less than the wild type.

Chains of the proteins cited; added tags and fusions are not shown.
UniProt P04198: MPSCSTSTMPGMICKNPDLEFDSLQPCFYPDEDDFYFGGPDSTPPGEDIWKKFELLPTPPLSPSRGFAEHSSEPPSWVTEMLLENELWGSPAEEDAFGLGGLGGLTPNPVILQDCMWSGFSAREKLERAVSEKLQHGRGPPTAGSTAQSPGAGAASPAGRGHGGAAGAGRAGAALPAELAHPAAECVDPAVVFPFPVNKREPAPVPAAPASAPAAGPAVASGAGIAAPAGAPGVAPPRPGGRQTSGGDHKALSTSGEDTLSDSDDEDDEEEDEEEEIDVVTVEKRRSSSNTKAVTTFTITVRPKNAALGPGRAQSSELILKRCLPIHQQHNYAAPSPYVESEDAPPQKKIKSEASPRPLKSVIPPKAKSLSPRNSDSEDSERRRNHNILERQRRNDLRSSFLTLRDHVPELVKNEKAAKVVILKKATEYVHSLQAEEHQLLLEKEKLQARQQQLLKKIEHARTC
UniProt P45974: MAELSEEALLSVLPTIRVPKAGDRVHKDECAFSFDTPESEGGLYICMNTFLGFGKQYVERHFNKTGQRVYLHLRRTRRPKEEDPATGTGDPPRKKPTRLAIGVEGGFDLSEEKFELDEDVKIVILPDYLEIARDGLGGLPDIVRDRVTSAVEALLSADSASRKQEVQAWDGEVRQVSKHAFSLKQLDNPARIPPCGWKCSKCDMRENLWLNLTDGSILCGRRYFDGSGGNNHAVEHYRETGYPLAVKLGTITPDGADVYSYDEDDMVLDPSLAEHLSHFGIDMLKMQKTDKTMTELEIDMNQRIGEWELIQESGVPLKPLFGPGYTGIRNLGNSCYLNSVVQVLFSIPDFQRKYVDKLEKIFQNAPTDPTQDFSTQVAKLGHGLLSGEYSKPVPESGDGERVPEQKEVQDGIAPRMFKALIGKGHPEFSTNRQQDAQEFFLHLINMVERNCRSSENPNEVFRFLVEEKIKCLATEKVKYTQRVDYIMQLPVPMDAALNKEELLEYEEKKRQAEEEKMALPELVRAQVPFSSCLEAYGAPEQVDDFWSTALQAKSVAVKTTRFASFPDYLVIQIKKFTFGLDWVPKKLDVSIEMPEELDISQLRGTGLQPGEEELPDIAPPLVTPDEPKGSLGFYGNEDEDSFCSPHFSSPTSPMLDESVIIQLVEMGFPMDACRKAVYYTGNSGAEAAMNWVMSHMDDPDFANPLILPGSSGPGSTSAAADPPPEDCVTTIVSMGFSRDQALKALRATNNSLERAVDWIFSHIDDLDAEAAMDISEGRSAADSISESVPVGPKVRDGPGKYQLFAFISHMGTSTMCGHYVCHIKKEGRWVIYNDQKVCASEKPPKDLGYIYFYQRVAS

Biological target: Endogenous MYCN (human (endogenous in Kelly and SK-N-BE(2)-C)) (UniProt P04198)
Experiment: co-IP; total protein from Kelly and SK-N-BE(2)-C cells; immunoprecipitation with IgG or MYCN antibody, immunoblot with USP5 and MYCN antibodies

Endogenous USP5 (ubiquitin-specific protease 5) (from UniProt P45974 1-858) (enzyme)
binding: binds
